Test results: US20230146675A1, “PYRIMIDO[5,4-d]PYRIMIDINE DERIVATIVES AS ENT INHIBITORS FOR THE TREATMENT OF CANCERS, AND COMBINATION THEREOF WITH ADENOSINE RECEPTOR ANTAGONISTS” (ITEOS BELGIUM SA, priority 2020, published 2023)
The structures given here were assigned with low confidence; some may be wrong.

The chains behind the UniProt entries cited, without tags or fusion partners.
UniProt Q99808, whole entry: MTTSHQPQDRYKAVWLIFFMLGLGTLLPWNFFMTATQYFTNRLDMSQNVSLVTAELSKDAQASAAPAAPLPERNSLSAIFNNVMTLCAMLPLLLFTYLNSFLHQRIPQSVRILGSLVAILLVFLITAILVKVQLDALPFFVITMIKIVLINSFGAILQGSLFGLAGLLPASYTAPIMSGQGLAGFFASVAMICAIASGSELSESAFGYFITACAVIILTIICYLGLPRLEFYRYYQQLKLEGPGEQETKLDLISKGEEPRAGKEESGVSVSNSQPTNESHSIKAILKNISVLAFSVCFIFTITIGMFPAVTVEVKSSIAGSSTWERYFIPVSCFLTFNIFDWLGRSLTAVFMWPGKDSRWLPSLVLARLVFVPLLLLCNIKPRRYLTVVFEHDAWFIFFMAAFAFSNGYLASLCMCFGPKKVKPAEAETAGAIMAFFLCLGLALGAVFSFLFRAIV

Molecular target: human ENT1 (Homo sapiens, UniProt Q99808)
Test: ENT1 binding assay (competition with Sahenta-DY647 on JAR cells)
Conditions: read-out: Binding Assay IC50, binned IC50

For `COCCN(CCOC)c1nc(N2CCN(c3nccs3)CC2)c2nc(N(CCO)CCO)nc(N3CCN(c4nccs4)CC3)c2n1`, the IC50 was 0.1 to 0.5 µM.
`COCCN(CCOC)c1nc(N2CCN(c3nccs3)CC2)c2nc(N(CCOC)CCOC)nc(N3CCCCC3)c2n1` showed an IC50 of 0.1 to 0.5 µM.
